These are yes or no findings as the source states them, for the method shown. Binding seen in cells or lysates may run through a third protein.
Molecular target: MAGOH-C-LgBiT (human) (UniProt P61326)
Test: split reporter; NanoBiT; both fusions transiently co-transfected in HEK 293 cells; luciferase activity (RLU) with furimazine in lysates

Chains of the proteins cited; added tags and fusions are not shown.
UniProt P61326: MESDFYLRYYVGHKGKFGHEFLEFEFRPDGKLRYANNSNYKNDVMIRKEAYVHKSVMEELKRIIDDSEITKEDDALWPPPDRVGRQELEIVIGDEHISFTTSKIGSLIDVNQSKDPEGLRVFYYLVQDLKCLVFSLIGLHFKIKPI

Q: With “SmBiT-N-MAGOH (from UniProt P61326 1-146) (other; other documents disagree on this pair)” as the substance, how does the binding read?
A: Its binding is “no binding”.

From paper PMC11101648
